Measurements reported in paper PMC11675580, “Supersaturated Gel Formulation (SGF) of Atorvastatin at a Maximum Dose of 80 mg with Enhanced Solubility, Dissolution, and Physical Stability” (Gels, 2024).

Test: Dissolution test (paddle method)
Type: physicochemical
Protocol: The dissolution test was performed using a dissolution tester (708-DS Agilent Technologies Inc., Santa Clara, CA, USA) at 50 rpm and 37 ± 0.5 °C using 900 mL of pH 1.2, pH 4.0, and pH 6.8 buffer solutions and water. The test was performed according to the paddle method using the dissolution medium. […] These samples were cooled down at room temperature for 24 h. […] [14, 15]. The samples were aliquoted at 5 mL using a syringe at predetermined time intervals (5, 10, 15, 30, 45, 60, 90, and 120 min).

Dissolution rate of ATR (pH 1.2, ATR only (Figure 9a), until 120 min / final): less than 10%
Chemical stability in dissolution medium (pH 1.2, degradation to Imp-A1, Imp-H, Imp-J): unstable
Chemical stability in dissolution media (pH 4.0 and pH 6.8 media, and water): chemically stable
SMILES: CC(C)c1c(C(=O)Nc2ccccc2)c(-c2ccccc2)c(-c2ccc(F)cc2)n1CC[C@@H](O)C[C@@H](O)CC(=O)O [ATR, Atorvastatin calcium trihydrate]
